PubChem BioAssay AID1259299 – Sanger Institute, 2017
In all, the deposit lists 794 reagents; below is an unselected part. Of all reagents, 9 (1.1%) were called active. 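Calls rest on knock-down alone; synergy scores play no part in calls, and no gene passed the synergy cut.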 A number with no mark means an inactive call. The numbers tell different reagents against one gene apart. Further read-outs or replicates are left out here. Not given: the amount of reagent, the time to read-out.

Screen: 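Essential genes and drug-synergistic partners among kinases and colorectal mutation genes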 (primary screen)
Cell system: human CAR1 colorectal cancer cells
Reagents: siRNA pool against human genes
Treatment: anchor drug BYL719 1 µM, cetuximab 5 µg/ml or trametinib 10 nM, or DMSO vehicle alone; exposure length not given
Detection: 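Cell viability as fraction of non-targeting siRNA wells, mean of replicates, with robust z-score and a synergy score for each of three drugs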
Scale: viability robust z-score, knock-down alone: higher = more viable cells
Active means: 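a gene is called essential if its knock-down-alone viability z-score drops under -3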
Meaning of the calls: active = essential (knock-down alone); inactive = no change

gene symbol	pool no.	viability robust z-score, knock-down alone
MAP3K10	1	0.789
DUSP21	1	0.713
CSNK1G2	1	0.789
EPHB2	1	0.789
PDK4	1	0.789
ACVR1C	1	0.789
CAMKK2	1	0.789
CERK	1	0.789
AK5	1	-1.17
ILK	1	0.153
ILK	2	0.779
PRKCZ	1	-0.782
CDKL3	1	0.789
PRKAR1B	1	-1.06
FLT1	1	-0.503
HIPK1	1	-0.839
ANKK1	1	-0.0596
CDK11B	1	0.789
CHUK	1	0.407
RYK	1	-0.0965
PAPSS1	1	0.789
MAP2K3	1	0.523
AK3	1	-0.111
CHKB	1	0.086
CDKL5	1	0.662
ASPM	1	0.789
SRPK3	1	0.00205
CNOT1	1	-3.61 (active)
PIK3CD	1	0.0388
PRKACA	1	0.625
NRBP1	1	-0.558
BUB1B	1	-0.215
SLK	1	0.717
WEE1	1	-3.76 (active)
CTCF	1	0.0977
ALPK1	1	-0.17

The list goes on, starting with the last 3 of the part before.
gene symbol	pool no.	viability robust z-score, knock-down alone
WEE1	1	-3.76 (active)
CTCF	1	0.0977
ALPK1	1	-0.17
LMTK1	1	0.789
BMAL1	1	-0.973
BRDT	1	-0.551
FGFR3	1	0.789
TTBK1	1	0.39
RIPK1	1	0.587
CDK10	1	0.0193
GRK5	1	0.615
TP53RK	1	0.789
CAMK1G	1	-1.87
PRKAB1	1	-1.19
EPHA6	1	-1.37
CHEK2	1	-0.0484
MAPK3	1	-0.87
CDADC1	1	-2.72
PLK4	1	-0.992
DIS3	1	0.286
MAP2K4	1	0.36
LMBR1	1	0.372
BMPR1B	1	-0.477
ROR2	1	0.229
MOS	1	-0.202
PCK2	1	-0.433
CDK5R1	1	-0.859
STK17B	1	0.0533
CDKL1	1	-0.0154
INSRR	1	0.687
